Some of the results follow.
Legend:
Assay in all cases: log2 fold change, soluble protein after heating vs DMSO (PISA); higher = thermal stabilisation; K562 cells, 10 uM, 30 min; active = over 0.2 and 3.5 SD of the protein, either way, in both replicates (recomputed)
[1] = compound: C/C(=N\NC(=O)C1=CC(=CC=C1)S(=O)(=O)N2CCOCC2)/C3=C(C=CC(=C3)Cl)O
Outline: (§1)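 K562 cells at 2×10^6 cells/mL were treated with 10 μM compound for 30 min. Aliquots were heated for 3 min across 48°C-58°C, pooled, and extracted in PBS with 0.5% NP-40 at 4°C; soluble protein was the supernatant after 21,000xg for 90 min. Soluble protein was quantified by TMTpro 16plex LC-MS/MS with channel sums equalised, and reported as log2 fold change in thermal stability against DMSO controls, with values from duplicates.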

Chains of the proteins cited; added tags and fusions are not shown. Lines headed by an entry give the natural chain unless they say otherwise; changes in a name come on top.
UniProt Q9BWP8: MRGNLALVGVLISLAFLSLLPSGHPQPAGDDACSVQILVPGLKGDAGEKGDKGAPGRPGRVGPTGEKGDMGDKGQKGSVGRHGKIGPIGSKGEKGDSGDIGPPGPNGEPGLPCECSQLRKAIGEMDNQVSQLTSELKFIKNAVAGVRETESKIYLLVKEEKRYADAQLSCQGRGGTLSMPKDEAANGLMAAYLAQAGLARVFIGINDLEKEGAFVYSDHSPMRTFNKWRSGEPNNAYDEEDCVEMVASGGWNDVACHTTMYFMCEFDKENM
UniProt Q49AN0: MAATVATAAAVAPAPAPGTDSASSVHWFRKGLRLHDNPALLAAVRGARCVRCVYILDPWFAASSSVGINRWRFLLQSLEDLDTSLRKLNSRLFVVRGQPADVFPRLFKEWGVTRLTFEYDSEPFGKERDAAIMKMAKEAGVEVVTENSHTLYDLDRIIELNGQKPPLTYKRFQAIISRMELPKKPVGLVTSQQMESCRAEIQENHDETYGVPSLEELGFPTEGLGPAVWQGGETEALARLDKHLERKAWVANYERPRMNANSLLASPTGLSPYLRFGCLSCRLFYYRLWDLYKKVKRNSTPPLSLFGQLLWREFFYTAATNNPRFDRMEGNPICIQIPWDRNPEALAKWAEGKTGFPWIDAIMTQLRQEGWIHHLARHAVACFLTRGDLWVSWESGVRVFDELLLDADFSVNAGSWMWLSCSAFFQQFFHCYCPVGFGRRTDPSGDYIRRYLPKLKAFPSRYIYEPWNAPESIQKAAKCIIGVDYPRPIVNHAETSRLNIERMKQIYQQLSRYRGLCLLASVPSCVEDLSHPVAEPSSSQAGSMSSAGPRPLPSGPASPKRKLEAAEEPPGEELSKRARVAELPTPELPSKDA
UniProt P02511: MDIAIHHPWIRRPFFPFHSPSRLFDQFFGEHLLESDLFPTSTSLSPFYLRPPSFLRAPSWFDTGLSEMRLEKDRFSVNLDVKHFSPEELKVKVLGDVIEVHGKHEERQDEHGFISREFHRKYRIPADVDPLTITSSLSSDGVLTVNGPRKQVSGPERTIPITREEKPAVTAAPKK
UniProt P53674: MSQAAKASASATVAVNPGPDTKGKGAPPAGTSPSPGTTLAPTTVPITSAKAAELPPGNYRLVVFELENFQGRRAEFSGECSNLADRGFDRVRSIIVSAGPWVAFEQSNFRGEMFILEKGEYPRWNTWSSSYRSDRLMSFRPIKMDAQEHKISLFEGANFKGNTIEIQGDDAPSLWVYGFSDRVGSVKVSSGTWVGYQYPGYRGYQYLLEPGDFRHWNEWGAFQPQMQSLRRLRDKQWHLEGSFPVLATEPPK
UniProt Q86T23: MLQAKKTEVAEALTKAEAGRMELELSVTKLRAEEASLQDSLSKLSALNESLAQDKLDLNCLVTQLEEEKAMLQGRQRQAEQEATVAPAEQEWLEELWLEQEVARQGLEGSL
UniProt O75575: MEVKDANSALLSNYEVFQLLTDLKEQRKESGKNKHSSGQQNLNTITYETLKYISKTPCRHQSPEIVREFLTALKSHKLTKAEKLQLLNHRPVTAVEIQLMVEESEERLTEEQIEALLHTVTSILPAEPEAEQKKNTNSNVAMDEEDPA
UniProt Q8N6G5: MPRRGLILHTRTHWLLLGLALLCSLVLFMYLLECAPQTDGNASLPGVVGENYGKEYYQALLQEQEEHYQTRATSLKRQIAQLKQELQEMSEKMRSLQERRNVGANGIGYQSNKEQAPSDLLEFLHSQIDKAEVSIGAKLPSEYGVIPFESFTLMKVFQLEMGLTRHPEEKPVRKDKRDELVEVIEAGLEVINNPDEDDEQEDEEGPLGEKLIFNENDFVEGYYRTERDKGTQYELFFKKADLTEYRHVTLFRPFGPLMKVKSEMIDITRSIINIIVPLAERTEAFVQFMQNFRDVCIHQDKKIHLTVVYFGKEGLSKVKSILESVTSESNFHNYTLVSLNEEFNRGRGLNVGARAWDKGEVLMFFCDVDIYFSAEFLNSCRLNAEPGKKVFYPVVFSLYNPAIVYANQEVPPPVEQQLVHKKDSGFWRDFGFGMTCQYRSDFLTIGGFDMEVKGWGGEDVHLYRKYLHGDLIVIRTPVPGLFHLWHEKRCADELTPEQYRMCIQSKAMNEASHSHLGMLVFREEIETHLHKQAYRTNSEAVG
UniProt Q9HCH3: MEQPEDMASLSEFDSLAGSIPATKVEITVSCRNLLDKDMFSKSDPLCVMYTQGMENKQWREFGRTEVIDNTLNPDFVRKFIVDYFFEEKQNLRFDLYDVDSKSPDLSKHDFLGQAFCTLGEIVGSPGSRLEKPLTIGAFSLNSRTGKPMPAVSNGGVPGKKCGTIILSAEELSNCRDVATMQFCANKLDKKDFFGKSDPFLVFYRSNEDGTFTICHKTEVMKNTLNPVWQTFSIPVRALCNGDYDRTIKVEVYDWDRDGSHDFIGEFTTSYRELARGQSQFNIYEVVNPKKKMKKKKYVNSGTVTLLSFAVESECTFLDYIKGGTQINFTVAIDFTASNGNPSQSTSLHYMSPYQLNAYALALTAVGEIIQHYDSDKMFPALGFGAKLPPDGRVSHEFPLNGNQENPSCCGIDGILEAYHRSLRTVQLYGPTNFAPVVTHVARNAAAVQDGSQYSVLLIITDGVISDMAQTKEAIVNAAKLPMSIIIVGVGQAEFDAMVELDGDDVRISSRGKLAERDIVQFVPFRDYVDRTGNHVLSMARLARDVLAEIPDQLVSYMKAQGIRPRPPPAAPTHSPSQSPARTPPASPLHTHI
UniProt Q16526: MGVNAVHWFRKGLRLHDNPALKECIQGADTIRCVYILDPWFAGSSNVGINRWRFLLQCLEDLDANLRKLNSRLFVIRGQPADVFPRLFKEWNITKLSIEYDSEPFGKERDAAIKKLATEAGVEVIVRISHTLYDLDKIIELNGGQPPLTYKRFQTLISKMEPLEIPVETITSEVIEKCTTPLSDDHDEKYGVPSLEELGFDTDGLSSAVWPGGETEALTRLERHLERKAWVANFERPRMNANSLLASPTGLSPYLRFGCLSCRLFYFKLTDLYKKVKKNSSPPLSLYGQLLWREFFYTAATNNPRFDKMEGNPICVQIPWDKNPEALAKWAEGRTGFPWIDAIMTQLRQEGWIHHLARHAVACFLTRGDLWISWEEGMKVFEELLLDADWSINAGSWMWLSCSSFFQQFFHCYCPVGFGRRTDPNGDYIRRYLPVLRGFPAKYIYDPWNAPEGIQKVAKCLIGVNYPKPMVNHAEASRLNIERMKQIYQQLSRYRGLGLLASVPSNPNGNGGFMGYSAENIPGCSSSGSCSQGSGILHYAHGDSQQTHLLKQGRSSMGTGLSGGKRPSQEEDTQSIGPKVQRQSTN
UniProt O95639, whole entry, looked up: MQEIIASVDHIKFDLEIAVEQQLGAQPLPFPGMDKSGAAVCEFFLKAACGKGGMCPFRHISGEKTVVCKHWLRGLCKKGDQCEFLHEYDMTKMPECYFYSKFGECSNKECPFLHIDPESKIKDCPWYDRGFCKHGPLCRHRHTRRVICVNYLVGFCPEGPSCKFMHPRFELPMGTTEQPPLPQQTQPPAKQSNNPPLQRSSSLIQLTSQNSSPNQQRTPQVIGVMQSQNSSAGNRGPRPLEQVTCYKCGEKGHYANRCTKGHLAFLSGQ
UniProt Q2VPA4, whole entry, looked up: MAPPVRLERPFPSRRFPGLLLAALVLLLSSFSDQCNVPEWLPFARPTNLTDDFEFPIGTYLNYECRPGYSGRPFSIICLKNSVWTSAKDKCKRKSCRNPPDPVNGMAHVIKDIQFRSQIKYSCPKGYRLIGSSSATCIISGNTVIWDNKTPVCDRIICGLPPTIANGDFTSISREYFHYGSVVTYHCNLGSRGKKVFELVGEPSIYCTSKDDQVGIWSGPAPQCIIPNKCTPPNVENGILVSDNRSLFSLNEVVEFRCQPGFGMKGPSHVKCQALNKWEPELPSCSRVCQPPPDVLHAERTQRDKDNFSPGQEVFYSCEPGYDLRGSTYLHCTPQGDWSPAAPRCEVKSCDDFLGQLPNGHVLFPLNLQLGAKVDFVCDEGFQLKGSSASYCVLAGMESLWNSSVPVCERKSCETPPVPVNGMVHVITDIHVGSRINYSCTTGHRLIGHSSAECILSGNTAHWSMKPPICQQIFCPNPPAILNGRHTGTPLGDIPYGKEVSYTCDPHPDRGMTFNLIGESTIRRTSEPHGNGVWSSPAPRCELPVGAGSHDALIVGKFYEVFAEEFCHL
UniProt Q9UBG3: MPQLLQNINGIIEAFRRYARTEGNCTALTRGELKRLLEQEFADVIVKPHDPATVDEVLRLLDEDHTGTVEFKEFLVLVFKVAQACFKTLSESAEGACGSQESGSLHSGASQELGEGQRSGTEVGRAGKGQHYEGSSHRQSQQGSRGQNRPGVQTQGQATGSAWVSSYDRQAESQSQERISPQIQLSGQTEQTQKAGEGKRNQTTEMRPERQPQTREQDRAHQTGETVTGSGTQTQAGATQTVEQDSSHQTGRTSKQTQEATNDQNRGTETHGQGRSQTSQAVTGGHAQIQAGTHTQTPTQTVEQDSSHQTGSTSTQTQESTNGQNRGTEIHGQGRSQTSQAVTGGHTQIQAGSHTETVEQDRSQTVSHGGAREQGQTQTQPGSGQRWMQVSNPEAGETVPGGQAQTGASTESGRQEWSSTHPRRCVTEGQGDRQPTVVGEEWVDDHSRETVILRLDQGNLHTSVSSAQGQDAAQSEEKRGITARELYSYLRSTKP
UniProt P02458, whole entry, looked up: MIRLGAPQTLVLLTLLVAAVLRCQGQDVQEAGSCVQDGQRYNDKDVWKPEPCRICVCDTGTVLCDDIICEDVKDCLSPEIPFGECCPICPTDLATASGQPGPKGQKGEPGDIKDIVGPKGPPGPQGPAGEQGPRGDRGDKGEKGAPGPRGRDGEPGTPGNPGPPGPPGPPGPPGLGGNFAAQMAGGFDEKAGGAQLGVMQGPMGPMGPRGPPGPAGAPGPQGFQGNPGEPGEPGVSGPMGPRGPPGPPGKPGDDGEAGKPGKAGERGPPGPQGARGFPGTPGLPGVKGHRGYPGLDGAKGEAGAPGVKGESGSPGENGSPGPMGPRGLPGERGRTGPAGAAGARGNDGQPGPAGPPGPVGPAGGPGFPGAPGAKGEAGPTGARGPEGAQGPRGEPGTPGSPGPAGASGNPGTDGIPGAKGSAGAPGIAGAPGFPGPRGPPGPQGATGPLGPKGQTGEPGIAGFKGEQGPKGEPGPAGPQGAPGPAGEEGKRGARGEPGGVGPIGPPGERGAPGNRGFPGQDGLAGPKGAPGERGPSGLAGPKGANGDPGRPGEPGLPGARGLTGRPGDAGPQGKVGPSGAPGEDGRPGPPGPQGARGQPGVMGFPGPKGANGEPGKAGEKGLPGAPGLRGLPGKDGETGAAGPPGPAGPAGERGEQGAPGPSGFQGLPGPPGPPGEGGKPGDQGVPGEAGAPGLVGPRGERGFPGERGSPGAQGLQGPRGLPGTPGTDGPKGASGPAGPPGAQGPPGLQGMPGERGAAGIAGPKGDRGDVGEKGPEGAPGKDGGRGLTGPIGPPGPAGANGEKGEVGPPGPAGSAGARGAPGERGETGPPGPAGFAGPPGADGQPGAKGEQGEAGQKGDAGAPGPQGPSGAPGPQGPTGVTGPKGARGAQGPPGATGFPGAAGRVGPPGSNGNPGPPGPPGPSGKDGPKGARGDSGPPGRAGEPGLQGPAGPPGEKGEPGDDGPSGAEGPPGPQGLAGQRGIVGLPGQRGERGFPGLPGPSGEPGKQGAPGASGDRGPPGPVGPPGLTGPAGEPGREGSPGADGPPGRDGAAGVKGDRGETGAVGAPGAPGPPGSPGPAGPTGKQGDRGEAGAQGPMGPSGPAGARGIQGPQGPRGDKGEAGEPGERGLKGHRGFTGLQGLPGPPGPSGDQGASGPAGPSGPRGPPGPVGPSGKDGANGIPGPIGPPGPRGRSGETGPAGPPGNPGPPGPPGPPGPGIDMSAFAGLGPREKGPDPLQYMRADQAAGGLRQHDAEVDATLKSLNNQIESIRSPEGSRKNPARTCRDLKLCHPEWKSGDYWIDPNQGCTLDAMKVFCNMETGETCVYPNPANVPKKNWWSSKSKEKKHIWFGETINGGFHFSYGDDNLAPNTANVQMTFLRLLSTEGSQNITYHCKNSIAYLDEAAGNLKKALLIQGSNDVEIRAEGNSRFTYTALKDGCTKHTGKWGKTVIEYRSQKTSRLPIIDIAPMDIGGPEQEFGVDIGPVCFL
UniProt Q9UJA2: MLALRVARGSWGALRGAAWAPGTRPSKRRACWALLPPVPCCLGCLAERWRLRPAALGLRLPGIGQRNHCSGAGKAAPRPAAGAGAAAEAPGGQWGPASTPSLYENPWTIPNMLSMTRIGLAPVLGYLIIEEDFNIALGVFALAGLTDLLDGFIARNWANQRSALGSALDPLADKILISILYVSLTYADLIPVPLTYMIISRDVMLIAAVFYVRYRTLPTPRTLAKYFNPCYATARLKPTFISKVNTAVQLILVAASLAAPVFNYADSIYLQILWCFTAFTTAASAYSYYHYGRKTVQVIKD
UniProt Q96I36: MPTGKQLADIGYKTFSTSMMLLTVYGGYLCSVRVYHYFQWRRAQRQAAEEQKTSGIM

[2] = compound: C1=CC(=C(C=C1Cl)C2=NC3=NC=CN=C3C(=N2)NC4=CC=NC=C4)F
Outline: as §1

[3] = compound: C1=CC2=C(C=CC(=C2)/C=C\3/C(=O)NC(=NCC4=CC=CS4)S3)N=C1
Outline: as §1

[4] = compound: C1=CC2=NC=CN=C2C=C1/C=C/3\C(=O)NC(=O)S3
Outline: as §1

[5] = compound: C1=CC=C2C(=C1)C3=NNC4=CC=CC(=C43)C2=O
Outline: as §1

[6] = compound: C1CCN(C1)C(=O)NC2=CC=CC(=C2)NC3=NC=C(C(=N3)NCCC4=CN=CN4)Br
Outline: as §1

[7] = compound: C1CN(CCC1(CC2=CC=C(C=C2)Cl)N)C3=NC=NC4=C3C=CN4
Outline: as §1

erlotinib = compound: C#Cc1cccc(Nc2ncnc3cc(OCCOC)c(OCCOC)cc23)c1 [erlotinib]
Outline: as §1

[8] = compound: C1=CC(=CC=C1C2=NC3=C(N2)C=C(C=C3)C(=O)N)OC4=CC=C(C=C4)Cl
Outline: as §1

[9] = compound: C1=CC=C(C=C1)C2=NC(=C(N2)C3=CC=NC=C3)C4=CC(=C(C=C4)Cl)O
Outline: as §1

Measured: log2 fold change

COLEC11 isoform 10 (UniProt Q9BWP8)
inactive: [1] -0.077 | [2] -0.058 | [3] 0.11 | [4] 0.047 | [5] -0.038

CRY2 (UniProt Q49AN0)
inactive: [1] 0.001 | [3] 0.144 | [4] 0.172 | [5] -0.051 | [6] 0.058 | [7] -0.11

CRYAB (UniProt P02511)
inactive: [1] -0.03 | [2] -0.081 | [3] 0.159 | [5] 0.077

CRYBB1 (UniProt P53674)
inactive: erlotinib 0.227 | [2] -0.033 | [8] -0.083

CROCCP2 (UniProt Q86T23)
inactive: erlotinib 0.054 | [8] -0.135 | [4] 0.079 | [9] 0.068

CRCP (UniProt O75575)
inactive: [2] -0.148 | [4] 0.066 | [6] 0.007 | [7] 0.027

CSGALNACT2 (UniProt Q8N6G5)
inactive: [1] 0.294 | [2] 0.073 | [3] -0.086 | [4] -0.052 | [5] 0.097

CPNE5 (UniProt Q9HCH3)
active: [7] -0.879
inactive: erlotinib 0.074 | [8] -0.175 | [6] 0.087

CRY1 (UniProt Q16526)
inactive: [2] -0.033 | [9] 0.012

CPSF4 (UniProt O95639)
inactive: [1] 0.006 | [3] -0.11 | [4] 0.135 | [9] 0.217 | [5] -0.146

Two successive entries from above, for reference:
CSGALNACT2 (UniProt Q8N6G5)
inactive: [1] 0.294 | [2] 0.073 | [3] -0.086 | [4] -0.052 | [5] 0.097

CPNE5 (UniProt Q9HCH3)
active: [7] -0.879
inactive: erlotinib 0.074 | [8] -0.175 | [6] 0.087

(next part)

CR1L (UniProt Q2VPA4)
inactive: erlotinib -0.089 | [8] 0.085

CRNN (UniProt Q9UBG3)
inactive: erlotinib 0.508 | [8] -1 | [4] -0.479

COL2A1 (UniProt P02458)
inactive: [1] -0.085 | [3] 0.093 | [5] -0.183 | [6] 0.105 | [7] 0.315

CRLS1 (UniProt Q9UJA2)
inactive: erlotinib -0.034 | [8] 0.019 | [6] -0.019 | [7] 0.074

COL6A3 (UniProt P12111)
inactive: erlotinib 0.099 | [2] -0.008 | [8] -0.141

COX14 (UniProt Q96I36)
inactive: erlotinib -0.044 | [2] 0.219 | [8] 0.037 | [4] 0

CRYM (UniProt Q14894)
inactive: erlotinib 0.028 | [2] 0.069 | [8] -0.027 | [6] 0.119 | [7] 0.233
